Measurements taken from the supplement of paper PMC4604168 (melanoma cell lines).
The other results are listed elsewhere or left out. Many values rest on one well or one pass, so single values are uncertain.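 The apoptosis fraction was the count of cleaved-PARP antibody-stained nuclei relative to all DNA-stained nuclei, imaged in 1,536-well plates. Screening doses were set so most cells survived, and baseline and induced cleaved-PARP levels vary greatly across cell lines.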

Key:
Experiment in all cases: cleaved PARP positive nuclei fraction relative to DMSO control; melanoma cells; higher = more apoptosis
Conditions in all cases: library dose: low library concentration; 72 h
WM115 = tested on: WM115
WM1716 = tested on: WM1716
WM1745 = tested on: WM1745
WM3526 = tested on: WM3526
WM3619 = tested on: WM3619
WM451Lu = tested on: WM451Lu

| SMILES | cleaved PARP positive nuclei fraction (WM115) [%] | cleaved PARP positive nuclei fraction (WM1716) [%] | cleaved PARP positive nuclei fraction (WM1745) [%] | cleaved PARP positive nuclei fraction (WM3526) [%] | cleaved PARP positive nuclei fraction (WM3619) [%] | cleaved PARP positive nuclei fraction (WM451Lu) [%] |
| --- | --- | --- | --- | --- | --- | --- |
| C[C@@H](N)c1ccc(C(=O)Nc2ccnc3[nH]ccc23)cc1 + CS(=O)(=O)c1ccc(C(=O)Nc2ccc(Cl)c(-c3ccccn3)c2)c(Cl)c1 [vismodegib] (first compound 0.4 µM, partner dose 1 µM) | 161 | 3190 | 123 | 70.9 | 72.8 | 49.9 |
| COc1ccc(C2=N[C@@H](c3ccc(Cl)cc3)[C@@H](c3ccc(Cl)cc3)N2C(=O)N2CCNC(=O)C2)c(OC(C)C)c1 [Nutlin-3] + O=C(O)c1ccc(-c2c[nH]c3ncc(-c4ccccc4)cc23)cc1C1CCCC1 [GSK650394] (first compound 0.1 µM, partner dose 0.16 µM) | 70.9 | 62.1 | 89.3 | 71.4 | 153 | 73.8 |
| NC(=O)c1ccc(N(C(N)=O)c2c(F)cccc2F)nc1-c1ccc(F)cc1F + COc1ccc(COc2ccc(Cc3cnc(N)nc3N)cc2OC)cc1 [GW2580] (first compound 0.4 µM, partner dose 1 µM) | 345 | 391 | 94.6 | 83.9 | 2100 | 34.8 |
| C[C@]1(O)C[C@@H](c2nc(-c3ccc4ccc(-c5ccccc5)nc4c3)c3c(N)nccn32)C1 + CC(=O)c1c(C)c2cnc(Nc3ccc(N4CCNCC4)cn3)nc2n(C2CCCC2)c1=O [palbociclib] (first compound 0.4 µM, partner dose 0.04 µM) | 94.7 | 41.1 | 115 | 57.1 | 209 | 95.3 |
| CS(=O)(=O)c1ccc(C(=O)Nc2ccc(Cl)c(-c3ccccn3)c2)c(Cl)c1 [vismodegib] + CNC(=O)c1cc(Oc2ccc(NC(=O)Nc3ccc(Cl)c(C(F)(F)F)c3)cc2)ccn1 [sorafenib] (first compound 1 µM, partner dose 0.4 µM) | 169 | 80.5 | 112 | 50.9 | 81.2 | 35.8 |
| Cn1cnc2c(F)c(Nc3ccc(Br)cc3Cl)c(C(=O)NOCCO)cc21 [selumetinib] + COc1ccc2c(c1)CCC1C2CCC2(C)C(NCCCCCCN3C(=O)C=CC3=O)CCC12 [U73122] (first compound 0.015 µM, partner dose 0.4 µM) | 82.7 | 70.5 | 105 | 96.2 | 111 | 149 |
| C[C@]1(O)C[C@@H](c2nc(-c3ccc4ccc(-c5ccccc5)nc4c3)c3c(N)nccn32)C1 + Nc1ncn([C@H]2C[C@H](O)[C@@H](CO)O2)c(=O)n1 [decitabine] (first compound 0.4 µM, partner dose 0.1 µM) | 92.5 | 93.9 | 125 | 43.7 | 80.4 | 184 |
| C[C@]1(O)C[C@@H](c2nc(-c3ccc4ccc(-c5ccccc5)nc4c3)c3c(N)nccn32)C1 + OCc1c[nH]c2ccccc12 [Indole-3-carbinol] (first compound 0.4 µM, partner dose 0.8 µM) | 45.5 | 89 | 122 | 97 | 92.3 | 94.2 |
| CCN(CC)CCNC(=O)c1c(C)[nH]c(/C=C2\C(=O)Nc3ccc(F)cc32)c1C [sunitinib] + COCC[n+]1c2c(n(Cc3cnccn3)c1C)C(=O)c1ccccc1C2=O [YM155] (first compound 0.4 µM, partner dose 0.0004 µM) | 158 | 117 | 97 | 111 | 88 | 159 |
| CC(=O)O[C@@]12CO[C@@H]1C[C@H](O)[C@@]1(C)C(=O)[C@H](O)C3=C(C)[C@@H](OC(=O)[C@H](O)[C@@H](NC(=O)OC(C)(C)C)c4ccccc4)C[C@@](O)([C@@H](OC(=O)c4ccccc4)[C@H]21)C3(C)C [Docetaxel] + Nc1ccn([C@@H]2O[C@H](CO)[C@@H](O)C2(F)F)c(=O)n1 [gemcitabine] (first compound 0.0001 µM, partner dose 0.0004 µM) | 294 | 447 | 178 | 246 | 127 | 440 |
| CC1(C)CCC(c2ccc(Cl)cc2)=C(CN2CCN(c3ccc(C(=O)NS(=O)(=O)c4ccc(N[C@H](CCN5CCOCC5)CSc5ccccc5)c(S(=O)(=O)C(F)(F)F)c4)cc3)CC2)C1 + Cc1ccc(Nc2nccc(N(C)c3ccc4c(C)n(C)nc4c3)n2)cc1S(N)(=O)=O [Pazopanib] (first compound 0.4 µM, partner dose 0.4 µM) | 222 | 74.8 | 643 | 49.2 | 99.4 | 212 |
| NC1(c2ccc(-c3nc4ccn5c(=O)[nH]nc5c4cc3-c3ccccc3)cc2)CCC1 + C[C@]1(c2nc3c(C(N)=O)cccc3[nH]2)CCCN1 [Veliparib] (first compound 0.4 µM, partner dose 1.4 µM) | 278 | 104 | 105 | 111 | 101 | 178 |
| NC1(c2ccc(-c3nc4ccn5c(=O)[nH]nc5c4cc3-c3ccccc3)cc2)CCC1 + CN(C)S(=O)(=O)c1ccc2c(c1)/C(=C/c1cc3c([nH]1)CCCC3)C(=O)N2 [SU6656] (first compound 0.4 µM, partner dose 0.4 µM) | 370 | 124 | 111 | 75.9 | 98.6 | 27.6 |
| NC1(c2ccc(-c3nc4ccn5c(=O)[nH]nc5c4cc3-c3ccccc3)cc2)CCC1 + CCc1ccc(CCOc2ccc(CC3SC(=O)NC3=O)cc2)nc1 [pioglitazone] (first compound 0.4 µM, partner dose 2 µM) | 103 | 36.6 | 90.5 | 129 | 90.2 | 73.6 |
| CS(=O)(=O)c1ccc(C(=O)Nc2ccc(Cl)c(-c3ccccn3)c2)c(Cl)c1 [vismodegib] + CCCS(=O)(=O)Nc1ccc(F)c(C(=O)c2c[nH]c3ncc(Cl)cc23)c1F [PLX4720] (first compound 1 µM, partner dose 0.08 µM) | 141 | 111 | 97.4 | 100 | 91 | 80.4 |
| CN(c1ncccc1CNc1nc(Nc2ccc3c(c2)CC(=O)N3)ncc1C(F)(F)F)S(C)(=O)=O + C=CCn1c(=O)c2cnc(Nc3ccc(N4CCN(C)CC4)cc3)nc2n1-c1cccc(C(C)(C)O)n1 [MK1775] (first compound 0.08 µM, partner dose 0.02 µM) | 99.1 | 137 | 133 | 241 | 127 | 125 |
| CN(c1ncccc1CNc1nc(Nc2ccc3c(c2)CC(=O)N3)ncc1C(F)(F)F)S(C)(=O)=O + COc1cc(N2CCC(N3CCN(C)CC3)CC2)ccc1Nc1ncc(Cl)c(Nc2ccccc2S(=O)(=O)C(C)C)n1 [NVP-TAE684] (first compound 0.08 µM, partner dose 0.08 µM) | 62.1 | 70.4 | 103 | 74.4 | 97.1 | 72.9 |
| NC(=O)c1ccc(N(C(N)=O)c2c(F)cccc2F)nc1-c1ccc(F)cc1F + Nc1ncn([C@H]2C[C@H](O)[C@@H](CO)O2)c(=O)n1 [decitabine] (first compound 0.4 µM, partner dose 0.1 µM) | 36.7 | 77.4 | 110 | 81.4 | 116 | 84.9 |
| Cn1cnc2c(F)c(Nc3ccc(Br)cc3Cl)c(C(=O)NOCCO)cc21 [selumetinib] + CC(C)(C)c1cnc(CSc2cnc(NC(=O)C3CCNCC3)s2)o1 [SNS-032] (first compound 0.015 µM, partner dose 0.01 µM) | 145 | 153 | 95.2 | 80.5 | 121 | 97.1 |
| CN(c1ncccc1CNc1nc(Nc2ccc3c(c2)CC(=O)N3)ncc1C(F)(F)F)S(C)(=O)=O + O=C(O)[C@@H]1[O][Sb](=[O])([O][Sb]2(=[O])[O][C@H]([C@H](O)CO)[C@H](O)[C@H](C(=O)O)[O]2)[O][C@H]([C@H](O)CO)[C@@H]1O [stibogluconate] (first compound 0.08 µM, partner dose 2 µM) | 95.9 | 106 | 114 | 42.1 | 80.8 | 196 |
| CS(=O)(=O)c1ccc(C(=O)Nc2ccc(Cl)c(-c3ccccn3)c2)c(Cl)c1 [vismodegib] + Cn1c(Nc2ccc(C(F)(F)F)cc2)nc2cc(Oc3ccnc(-c4ncc(C(F)(F)F)[nH]4)c3)ccc21 [CHIR265] (first compound 1 µM, partner dose 0.08 µM) | 264 | 132 | 104 | 51.7 | 131 | 39.1 |
| CC1(C)CCC(c2ccc(Cl)cc2)=C(CN2CCN(c3ccc(C(=O)NS(=O)(=O)c4ccc(N[C@H](CCN5CCOCC5)CSc5ccccc5)c(S(=O)(=O)C(F)(F)F)c4)cc3)CC2)C1 + Clc1ccc(Nc2nnc(Cc3ccncc3)c3ccccc23)cc1 [vatalanib] (first compound 0.4 µM, partner dose 2 µM) | 236 | 194 | 1170 | 109 | 119 | 407 |
| CC(=O)O[C@@]12CO[C@@H]1C[C@H](O)[C@@]1(C)C(=O)[C@H](O)C3=C(C)[C@@H](OC(=O)[C@H](O)[C@@H](NC(=O)OC(C)(C)C)c4ccccc4)C[C@@](O)([C@@H](OC(=O)c4ccccc4)[C@H]21)C3(C)C [Docetaxel] + COc1cc2ncnc(Nc3ccc(Oc4ccccc4)cc3)c2cc1OC [SrcI1] (first compound 0.0001 µM, partner dose 2 µM) | 717 | 424 | 205 | 169 | 113 | 116 |

Rewritten bar-delimited: entries from further up
SMILES | cleaved PARP positive nuclei fraction (WM115) [%] | cleaved PARP positive nuclei fraction (WM1716) [%] | cleaved PARP positive nuclei fraction (WM1745) [%] | cleaved PARP positive nuclei fraction (WM3526) [%] | cleaved PARP positive nuclei fraction (WM3619) [%] | cleaved PARP positive nuclei fraction (WM451Lu) [%]
C[C@]1(O)C[C@@H](c2nc(-c3ccc4ccc(-c5ccccc5)nc4c3)c3c(N)nccn32)C1 + OCc1c[nH]c2ccccc12 [Indole-3-carbinol] (first compound 0.4 µM, partner dose 0.8 µM) | 45.5 | 89 | 122 | 97 | 92.3 | 94.2
CC(=O)O[C@@]12CO[C@@H]1C[C@H](O)[C@@]1(C)C(=O)[C@H](O)C3=C(C)[C@@H](OC(=O)[C@H](O)[C@@H](NC(=O)OC(C)(C)C)c4ccccc4)C[C@@](O)([C@@H](OC(=O)c4ccccc4)[C@H]21)C3(C)C [Docetaxel] + Nc1ccn([C@@H]2O[C@H](CO)[C@@H](O)C2(F)F)c(=O)n1 [gemcitabine] (first compound 0.0001 µM, partner dose 0.0004 µM) | 294 | 447 | 178 | 246 | 127 | 440
